These are yes or no findings as the source states them, for the method shown. Values belong to the binder of their own block, whether it stands above or below them.
Columns and labels:
lamin [1] = assay: yeast two-hybrid, β-galactosidase expression
cyclin D [2] = assay: yeast two-hybrid, β-galactosidase expression
lamin [3] = assay: yeast two-hybrid, β-gal filter assay (FIG. 5)
cyclin D [4] = assay: yeast two-hybrid, β-gal filter assay (FIG. 5)
cyclin D [5] = assay: yeast two-hybrid, β-galactosidase test (FIG. 1); cyclin D is named as a negative control in paragraph 206
lamin [6] = assay: yeast two-hybrid, β-galactosidase test (FIG. 1); lamin is named as a negative control in paragraph 206
lamin [7] = assay: yeast two-hybrid, β-galactosidase filter assay

- binding (lamin [1]): no binding
- binding (cyclin D [2]): no binding
B1: MORT-1-binding protein of Example 2 (product of the two cDNA clones from the human B-cell library) (protein, UniProt Q15628 1-312, looked up)
chain: MAAGQNGHEEWVGSAYLFVESSLDKVVLSDAYAHPQQKVAVYRALQAALAESGGSPDVLQMLKIHRSDPQLIVQLRFCGRQPCGRFLRAYREGALRAALQRSLAAALAQHSVPLQLELRAGAERLDALLADEERCLSCILAQQPDRLRDEELAELEDALRNLKCGSGARGGDGEVASAPLQPPVPSLSEVKPPPPPPPAQTFLFQGQPVVNRPLSLKDQQTFARSVGLKWRKVGRSLQRGCRALRDPALDSLAYEYEREGLYEQAFQLLRRFVQAEGRRATLQRLVEALEENELTSLAEDLLGLTDPNGGLA

- binding (lamin [3]): no binding
- binding (cyclin D [4]): no binding
- binding (cyclin D [5]): no binding
- binding (lamin [6]): no binding
B2: MORT-1 protein (full-length) (protein)
chain: VNQAPECRFGGGILGPLGKRRDLARASEPRTEGARRAGPQPRPLADPAMDPFLVLLHSVSSSLSSSELTELKFLCLGRVVKRKLERVQSGLDLFSMLLEQNDLEPGHTELLRELLASLRRHDLLRRVDDFEAGAAAGAAPGEEDLCAAFNVICDNVGKDWRRLARQLKVSDTKIDSIEDRYPRNLTERVRESLRIWKNTEKENATVAHLVGALRSCQMNLVADLVQEVQQARDLQNRSGAMSPMSWNSDASTSEAS

More lines, now with the values behind:

B3: MACH (construct with the full-length MACH cDNA) (protein)
chain: MDFSRNLYDIGEQLDSEDLASLKFLSLDYIPQRKQEPIKDALMLFQRLQEKRMLEESNLSFLKELLFRINRLDLLITYLNTRKEEMERELQTPGRAQISAYRVMLYQISEEVSRSELRSFKFLLQEEISKCKLDDDMNLLDIFIEMEKRVILGEGKLDILKRVCAQINKSLLKIINDYEEFSKERSSSLEGSPDEFSNDFGQSLPNEKQTSGILSDHQQSQFCKSTGESAQTSQH
- binding (lamin [7]): no binding (tested: no color within 24 hrs)

B4: MACHβ1 (ORF-B of MACH) (protein)
chain: B3 chain
- binding (lamin [7]): no binding (tested: no color within 24 hrs)
- binding (lamin [3]): no binding
- binding (cyclin D [4]): no binding

— patent US20070154905A1
